Results are given in words; binding and its absence hold for the method and conditions named. Binding seen in cells or lysates may run through a third protein. Here binding means that the protein was enriched with, or labelled near, the bait; the list need not be complete.
Molecular target: FLAG-Myosin-A WT (complement) (Toxoplasma gondii) (UniProt O00934)
Experiment: proximity labelling; reciprocal BAR in a cell line expressing FLAG-tagged MyoA; streptavidin beads, mass spectrometry

By UniProt entry, the sequences of proteins in these tests, tags left out.
UniProt Q962H9: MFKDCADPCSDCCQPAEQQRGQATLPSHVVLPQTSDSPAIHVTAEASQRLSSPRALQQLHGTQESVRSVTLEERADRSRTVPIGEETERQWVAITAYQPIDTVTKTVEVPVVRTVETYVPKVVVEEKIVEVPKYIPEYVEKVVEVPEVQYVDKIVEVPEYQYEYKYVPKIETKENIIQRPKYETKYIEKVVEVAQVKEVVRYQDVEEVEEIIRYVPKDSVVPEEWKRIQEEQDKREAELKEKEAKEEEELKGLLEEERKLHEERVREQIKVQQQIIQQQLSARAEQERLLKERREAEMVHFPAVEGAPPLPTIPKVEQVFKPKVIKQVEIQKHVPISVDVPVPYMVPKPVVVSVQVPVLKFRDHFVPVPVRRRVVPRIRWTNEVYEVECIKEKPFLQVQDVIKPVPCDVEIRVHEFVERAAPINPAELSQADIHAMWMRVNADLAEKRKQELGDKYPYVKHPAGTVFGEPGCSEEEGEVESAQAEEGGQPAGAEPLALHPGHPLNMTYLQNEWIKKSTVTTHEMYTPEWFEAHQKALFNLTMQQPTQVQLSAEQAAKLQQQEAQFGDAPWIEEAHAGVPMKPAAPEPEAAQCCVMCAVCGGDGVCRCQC

## IMC1 (from UniProt Q962H9 1-609)
  binding: binds

From publication PMC11486366
